{"sequences": {"note": "Chains of the proteins cited; added tags and fusions are not shown.", "UniProt Q13148, whole entry": "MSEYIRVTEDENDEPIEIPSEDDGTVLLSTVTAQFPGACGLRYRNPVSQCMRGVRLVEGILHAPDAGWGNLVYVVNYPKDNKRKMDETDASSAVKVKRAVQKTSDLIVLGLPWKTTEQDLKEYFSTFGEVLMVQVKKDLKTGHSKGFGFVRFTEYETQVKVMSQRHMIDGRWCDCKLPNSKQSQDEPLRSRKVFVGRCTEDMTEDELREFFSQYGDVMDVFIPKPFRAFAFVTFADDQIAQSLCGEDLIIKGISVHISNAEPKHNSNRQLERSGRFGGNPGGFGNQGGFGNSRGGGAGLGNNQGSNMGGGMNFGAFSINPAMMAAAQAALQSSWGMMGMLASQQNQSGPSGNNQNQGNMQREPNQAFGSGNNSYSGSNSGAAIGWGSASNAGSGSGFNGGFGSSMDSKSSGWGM"}, "source": "paper PMC7235295", "target": "TDP43 (denatured full-length, ab156345) (UniProt Q13148)", "assay": "EMSA", "conditions": "denatured TDP43, up to 1.25 uM (Methods, legend prints mM); EMSA: 14 mM Tris pH 8.0, 35 mM KCl, 14 mM NaCl, 1.4 mM MgCl2, 14% glycerol, 0.7 mM DTT, 30 min RT, 5 nM RNA, gel at 4 C; commercial protein; residues 1-414; label: 5'-32P", "note": "For at least one entry, the source does not settle the construct or the ends of the probe."}
{"sequence": "UGAGUGUGUGUGUGUGAGUGUGU [miR-574-5p (EMSA)]", "values": [{"measurement": "binding result", "value": "binds"}]}
